For 42 sequences, binding signal results are on record in PMC7819943, “Rice protein-binding microarrays: a tool to detect cis-acting elements near promoter regions in rice”.

The chains behind the UniProt entries cited, without tags or fusion partners.
UniProt Q0JBA9, entry or part of it: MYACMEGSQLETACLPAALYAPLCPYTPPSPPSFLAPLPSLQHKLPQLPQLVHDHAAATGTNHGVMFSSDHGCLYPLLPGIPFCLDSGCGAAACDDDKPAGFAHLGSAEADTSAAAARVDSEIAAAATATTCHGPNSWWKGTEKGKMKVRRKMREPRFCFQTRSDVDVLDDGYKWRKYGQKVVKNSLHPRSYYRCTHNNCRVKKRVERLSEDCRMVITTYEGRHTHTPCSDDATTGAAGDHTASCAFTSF

Some of the results follow.

The test addresses OsWRKY34 (Oryza sativa, UniProt Q0JBA9 1-250). In words: protein-binding microarray (RPBM); PBS, 2% BSA, 51.3 ng/ul salmon testes DNA, 50 uM zinc acetate, 200 nM TF, 25 C, 1 h; high values mean tight binding. To be noted: protein: recombinant; tags: N-terminal polyhistidine and DsRed monomer fusion (pET32a); label: CyDye5-dUTP incorporated in the synthesized complementary strand; 3' TTTTT single-stranded linker to array surface; dsDNA, one strand shown. The essentials: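 In PBS with 2% BSA, salmon testes DNA and 50 µM zinc acetate, 200 nM protein was incubated on a custom Agilent array at 25 °C for 1 h and then washed off. The array had been made double-stranded by primer extension with Cy5-dUTP and blocked with 2% BSA. The proteins were transcription factors fused N-terminally to polyhistidine and DsRed, expressed in E. coli BL21-CodonPlus and purified on Ni–NTA. The binding signal is per-feature fluorescence intensity (arbitrary units) from an Axon 4000B scanner.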
Turning to “AGGTTATTCCCCGCTTACCTATTTCTTTTTTTTTATTTTGCGGAGTCACCTAGTGCAG”, the binding signal is 12500 fluorescence intensity (a.u.). Regarding “CTCGAGTATAAATAGAGAGGGAGGGTGTGATTTTCCGGTACGGAGTCACCTAGTGCAG”, the binding signal is 8160 fluorescence intensity (a.u.).

Take “GGGTGGGTGGAGACTGGAGAGTCCTCTCCGCGAGAGGCTGCGGAGTCACCTAGTGCAG”: the binding signal is 8410 fluorescence intensity (a.u.).

In the case of “TCCTTGTACCGTGCCTTCGGGATGATTGAATTCACCAATGCGGAGTCACCTAGTGCAG”, the binding signal was 8830 fluorescence intensity (a.u.). In the case of “GTACAACCCTTTTTGCATCATTTTGCCAACCCAAACCCTACGGAGTCACCTAGTGCAG” it was 8330 fluorescence intensity (a.u.); in that of “AAATGTTTGACACCGTTGATTTTTTAGCGCATGTTTGACCCGGAGTCACCTAGTGCAG”, 8840 fluorescence intensity (a.u.); in that of “TACGCAAGTACCTCACATACTTTTTATCTCGTTGTTGAACCGGAGTCACCTAGTGCAG”, 8200 fluorescence intensity (a.u.).

Take “TTTGTCTTGACGCACACTTCACTTCTGCCGCGCCATTTTTCGGAGTCACCTAGTGCAG”: the binding signal is 10900 fluorescence intensity (a.u.).

Regarding “TCATCAGATCACTAATGGTTCTAGTTCCATATGCCCTTGTCGGAGTCACCTAGTGCAG”, the binding signal was 8680 fluorescence intensity (a.u.). In the case of “CGAAAAAAAGTCACAGCCCTCATTGACTCGCATCTTCTTCCGGAGTCACCTAGTGCAG” it was 8360 fluorescence intensity (a.u.); in that of “ATCTTCTTATTCATTCCTTCATTCTCCCTAGTGTGTATAACGGAGTCACCTAGTGCAG”, 8750 fluorescence intensity (a.u.); in that of “CTGTTCCAATTGTTCAGGTGGGTTTGGCAGTTACTTGTTTCGGAGTCACCTAGTGCAG”, 11400 fluorescence intensity (a.u.).

Regarding “GATCATCTGTTCCACCCGCCACCCGCCACCCGCCACAATCCGGAGTCACCTAGTGCAG”, the binding signal was 13200 fluorescence intensity (a.u.). In the case of “TGGCTCTCTCGCTCCTATGTGGCTATGTCTGTCTACCTAACGGAGTCACCTAGTGCAG” it was 10800 fluorescence intensity (a.u.); in that of “CCCCATTTAAATCCGTCTCGTTTCCCGCCGCAAATCCCAGCGGAGTCACCTAGTGCAG”, 8760 fluorescence intensity (a.u.).

Take “GAATTTCCATATCCAACATTTGATCTTATTTGAGATTTTTCGGAGTCACCTAGTGCAG”: the binding signal was 8650 fluorescence intensity (a.u.). In the case of “CTCGAGGTCTTGATTAGCTTGTACAGTTTGTCCTCGAGCTCGGAGTCACCTAGTGCAG” it was 8710 fluorescence intensity (a.u.); in that of “TTTTTTAACTTAAATCAGCGTGTGTACTATTTTTCTTTTACGGAGTCACCTAGTGCAG”, 8630 fluorescence intensity (a.u.); in that of “TGGGAATTGGGACCCACGCCCATGTATCAGTTCTTCGGTTCGGAGTCACCTAGTGCAG”, 8330 fluorescence intensity (a.u.). In the case of “TGCCTCTGCGTCAGTCGCTGTCTGTAAACTGTCCGGCAATCGGAGTCACCTAGTGCAG” it was 8500 fluorescence intensity (a.u.); in that of “CTCTCGTGTCACTGCCTCATCGGCCTGCCTGCTCTGCCCGCGGAGTCACCTAGTGCAG”, 8420 fluorescence intensity (a.u.); in that of “ATATATATGGTAATGGATGGGGATGGTTGCAGTGTTCAAGCGGAGTCACCTAGTGCAG”, 9130 fluorescence intensity (a.u.).

As for “TGCAGCTCGTGTCAAATTTCTGTCGTTTCTTTGAGCGAATCGGAGTCACCTAGTGCAG”, the binding signal was 8610 fluorescence intensity (a.u.). In the case of “TTCACGGTTTCAGGACTCGGCCGCATCCCTCCTCGCCCACCGGAGTCACCTAGTGCAG” it was 8940 fluorescence intensity (a.u.); in that of “GGTTGAGGGTGATGATTAGTAAGATACTGGGGATGCTCGACGGAGTCACCTAGTGCAG”, 8780 fluorescence intensity (a.u.); in that of “TTTCTTGGTAGTTCTATTTCCAATCACATATCTTCTTGAACGGAGTCACCTAGTGCAG”, 9600 fluorescence intensity (a.u.). As for “CCCCACTCCCTCCACTCCGGCGGTTTCATCCTCCTGTCCTCGGAGTCACCTAGTGCAG”, the binding signal was 8750 fluorescence intensity (a.u.). In the case of “AATCTGTAGCCCGCTGCTTTTCTCTCTTCTCATTTATTTTCGGAGTCACCTAGTGCAG” it was 15400 fluorescence intensity (a.u.).

“CCATATCGTTTTGACGTTTTTAGTGTAGGTCAATTTATAGCGGAGTCACCTAGTGCAG”: the binding signal is 8170 fluorescence intensity (a.u.).

For “CGTCCTCGTTGCGTCGGCGCCATCGTCTCCCACAGGCGTTCGGAGTCACCTAGTGCAG”, the binding signal is 8760 fluorescence intensity (a.u.). For the sequence “CCCCTACGGTTCAGTGGTATCACCGATTTCTCCTCATTGACGGAGTCACCTAGTGCAG”, the binding signal was 9350 fluorescence intensity (a.u.). In the case of “GTGTCCAACGTTTCACCGTCTGTCTCATATAAAATTTTTTCGGAGTCACCTAGTGCAG” it was 12400 fluorescence intensity (a.u.); in that of “TGCCAAGGACTGCATCTTCATCATTGCCTGGGTGTCCACCCGGAGTCACCTAGTGCAG”, 8700 fluorescence intensity (a.u.); in that of “ACTCACTTCTTCCAGATCCACGCTTACGCTTCCACACTCACGGAGTCACCTAGTGCAG”, 15500 fluorescence intensity (a.u.).

Regarding “CGCCATTCCGCACGCCGTGTCTTCCTCTCGTAAATCCCTCCGGAGTCACCTAGTGCAG”, the binding signal is 9490 fluorescence intensity (a.u.). In the case of “CCCTACTACCAGTCTACCACACTATGACACTACCCAACACCGGAGTCACCTAGTGCAG” it was 8670 fluorescence intensity (a.u.); in that of “CTAAAGCACCCTTATATTACCATGCTGCTAATTTTGTTGTCGGAGTCACCTAGTGCAG”, 8040 fluorescence intensity (a.u.); in that of “GCGGCTGGTATTCACATCGATTCTTTTGTCGCAGCTGGCGCGGAGTCACCTAGTGCAG”, 9560 fluorescence intensity (a.u.).

With “ATCACATCAAAATTTTCCTACACACATAAACTTCCAACTTCGGAGTCACCTAGTGCAG”, the binding signal was 8140 fluorescence intensity (a.u.). In the case of “CCAGGTGCTTGTTGTAGCATTTGTATCTGCAGTCTCATTCCGGAGTCACCTAGTGCAG” it was 11500 fluorescence intensity (a.u.); in that of “TTATAGTCTGCTTATTGTACCTGCTCTAAGGAGCTCTTCACGGAGTCACCTAGTGCAG”, 9260 fluorescence intensity (a.u.). In the case of “TACCTCTGCTGGTGTCACCATGACCTCCTTGATCAACTCTCGGAGTCACCTAGTGCAG” it was 10300 fluorescence intensity (a.u.).
